Assay results taken from paper PMC10643436.
Results are given in words; binding and its absence hold for the method and conditions named. Binding seen in cells or lysates may run through a third protein. Some entries that bind do so weakly or less than the wild type.

By UniProt entry, the sequences of proteins in these tests, tags left out. Residues count along the entry.
UniProt Q03145, residues 26-977: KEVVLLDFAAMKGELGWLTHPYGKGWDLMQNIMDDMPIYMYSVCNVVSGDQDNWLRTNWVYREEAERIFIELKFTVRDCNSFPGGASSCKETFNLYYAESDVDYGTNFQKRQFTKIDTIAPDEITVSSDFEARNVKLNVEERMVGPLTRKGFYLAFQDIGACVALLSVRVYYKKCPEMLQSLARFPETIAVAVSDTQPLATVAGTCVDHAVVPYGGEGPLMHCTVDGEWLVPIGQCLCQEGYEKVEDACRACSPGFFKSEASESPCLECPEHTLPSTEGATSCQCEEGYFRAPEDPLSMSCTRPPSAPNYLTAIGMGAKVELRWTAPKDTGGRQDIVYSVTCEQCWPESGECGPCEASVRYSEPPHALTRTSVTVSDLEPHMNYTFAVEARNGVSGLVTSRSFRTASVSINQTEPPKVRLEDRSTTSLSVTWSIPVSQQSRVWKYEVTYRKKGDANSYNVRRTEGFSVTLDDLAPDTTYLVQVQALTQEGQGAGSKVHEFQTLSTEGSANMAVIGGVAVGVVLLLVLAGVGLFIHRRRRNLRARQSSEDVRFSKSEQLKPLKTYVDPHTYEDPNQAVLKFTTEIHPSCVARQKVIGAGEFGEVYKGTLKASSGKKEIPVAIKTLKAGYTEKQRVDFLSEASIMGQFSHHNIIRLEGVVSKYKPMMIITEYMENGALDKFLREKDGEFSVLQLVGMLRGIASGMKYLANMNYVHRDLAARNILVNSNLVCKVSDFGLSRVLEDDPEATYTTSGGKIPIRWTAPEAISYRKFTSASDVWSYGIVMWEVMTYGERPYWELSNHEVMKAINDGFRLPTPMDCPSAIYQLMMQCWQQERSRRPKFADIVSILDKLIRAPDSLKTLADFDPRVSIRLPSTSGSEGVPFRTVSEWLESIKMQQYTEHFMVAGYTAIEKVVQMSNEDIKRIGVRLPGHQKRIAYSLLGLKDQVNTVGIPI

Molecular target: EphA2 (UniProt Q03145)
Assay: co-IP; Exo group compared with Exo+EphA2 group (exosomes from MC3T3-E1 cells with or without EphA2 overexpression); done both ways (EphA2-EphrinA2 and EphrinA2-EphA2); no co-IP protocol in the methods

B1: EphrinA2 (ligand, UniProt P52801 21-184)
chain: RNEDPARANADRYAVYWNRSNPRFQVSAVGDGGGYTVEVSINDYLDIYCPHYGAPLPPAERMERYILYMVNGEGHASCDHRQRGFKRWECNRPAAPGGPLKFSEKFQLFTPFSLGFEFRPGHEYYYISATPPNLVDRPCLRLKVYVRPTNETLYEAPEPIFTSN
Question: For B1, which binding is on record?
Answer: Its binding is “binds”.
